Reference: PubChem BioAssay AID504444 (National Center for Advancing Translational Sciences (NCATS), 2011)
Where “and” joins values, the source holds several entries; their conditions need not be identical. Equal values may be shown once. Among all 360,000 compounds or so, about 7,500 (2.1%) were called active. Inconclusive means that the source gave no clear call. Such entries were picked first, then a sample of the others. Calls follow the shape of the dose curve; as a rule, active = well fitted inhibition curve with a large enough effect; inconclusive = small, poorly fitted or top-dose-only effect, or effect the other way; inactive = flat fitted curve, though single readings scatter. Potencies beside an inconclusive call are fits to weak or partial responses and may not hold up.

Assay: Nrf2 qHTS screen for inhibitors; also: nearly all actives have a fitted effect of over 60% in size
Details: A549 ARE-Fluc reporter, luciferase luminescence, 18-24 h; series mostly up to 46 µM
Procedure, shortened: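 Nrf2 activity is the BugLite luminescence, read 15 min after reagent at room temperature, following CellTiter-Fluor cytotoxicity readout (30 min, 37C). Compound titrations were applied for 18-24 h to 5000 A549 ARE_Fluc cells/well in 5% FBS OPTI-MEM.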
Potency is read from the fitted curve at half-maximal effect.

| Structure (SMILES) | Potency |
| --- | --- |
| O=c1oc(-c2cc3ccccc3o2)nc2sc3c(c12)CCCC3 | inconclusive: 2.06 µM [falling, partial curve, poor fit] |
| CCn1c2ccccc2c2nnc(SCC(N)=O)nc21 | inactive |
| CN(c1ccc(OCC(=O)N2CCCC2)cc1)S(=O)(=O)c1ccc(Cl)cc1 | inconclusive: 23.1 µM [falling, single point] |
| O=C(Cn1ncc(Cl)c(Cl)c1=O)NCC1CCCCC1 | inactive |
| Cc1ccccc1C1=NC(C(F)(F)F)(C(F)(F)F)c2c(n(C)c(=O)n(C)c2=O)N1 | inactive |
| CCCn1c(=N)n(CC(=O)c2ccc(Cl)c(Cl)c2)c2ccccc21 | inconclusive: 2.59 µM [activator, single point] |
| CN(C)S(=O)(=O)Oc1cccc(C(=O)Nc2ccc(Cl)cc2)c1 | inconclusive: 10.3 µM [falling, partial curve, poor fit] |
| Cc1ccc(S(=O)(=O)N2CCN(C(=O)CCC(=O)Nc3ccc(Br)c(C)c3)CC2)cc1 | inconclusive: 2.91 µM [falling, single point] |
| Cc1ccc(Nc2cc(-c3ccccc3)nc(C)n2)cc1 | inconclusive: 23.1 µM [activator, single point] |
| CCS(=O)c1ccccc1C(=O)OCC(=O)Nc1ccc2ccccc2c1 (stereo unspecified) | inconclusive: 29.1 µM [falling, single point] |
| c1ccc(OCCOc2ncnc3sccc23)cc1 | inconclusive: 8.2 µM [activator, partial curve, poor fit] |
| O=C(CCS(=O)(=O)c1ccccc1)N(CCCN1CCOCC1)c1nc2ccccc2s1 | inactive |
| CCOc1ccc(C(=O)Nc2cccc3ncccc23)cc1Br | inconclusive: 0.0461 µM [falling, full curve, poor fit] |
| CCC1=C(OC(=O)N(CC)CC)N2C(=O)OC(=NCCc3c[nH]c4ccccc34)[C@]2(Cc2ccccc2)[C@H]2C1=CC[C@H]1C(=O)N(CC(=O)OC)C(=O)[C@H]12 | inconclusive: 29.1 µM [falling, single point] |
| CCc1ccc(C2C(C#N)=C(N)SC(N)=C2C#N)cc1 | inconclusive: 6.51 µM [falling, partial curve, poor fit] |
| c1ccc(Cc2noc(CN3CCN(C4CCc5ccccc5C4)CC3)n2)cc1 (stereo unspecified) | inconclusive: 18.4 µM [falling, single point] |
| Fc1ccc(-c2cnn3c(-c4cccs4)ccnc23)cc1 | inconclusive: 3.66 µM [activator, full curve] |
| CC(C)n1nc(C(=O)Oc2ccc(Cl)cc2)c2ccccc2c1=O | inactive |
| CCN1CCN(C(=O)c2cc3c(s2)-c2c(C)cccc2OC3)CC1 | inconclusive: 14.6 µM [activator, partial curve] |
| O=C(NCc1cccnc1)c1ccc(S(=O)(=O)N2CCCCCC2)cc1 | inactive |
| Cc1cccc(NC(=O)COc2cccc3c2CCN(C)C3=O)c1 | inconclusive: 13 µM [falling, single point] |
| CCN(c1ccccc1)S(=O)(=O)c1nnc(NC(=O)COc2ccccc2F)s1 | inconclusive: 5.8 µM [activator, full curve] |

| Structure (SMILES) | Potency |
| --- | --- |
| Cc1cc(C)c(OCC(=O)Nc2ccc(NC(=O)c3ccco3)cc2)c([N+](=O)[O-])c1 | inconclusive: 4.11 µM [falling, partial curve, poor fit] |
| COc1ccc(/C=C2\SC(=N)N(c3nccs3)C2=O)cc1OC | inconclusive: 23.1 µM [activator, single point] |
| Cc1ccc(N2CCN(C3=NC(=O)/C(=C\c4cn[nH]c4-c4ccccc4)S3)CC2)cc1 | inconclusive: 29.1 µM [falling, single point] |
| CCOc1ccc2c(c1)C(N(CCN1CCOCC1)C(=S)Nc1ccccc1OC)CC(C)(C)O2 (stereo unspecified) | inconclusive: 29.1 µM [falling, single point] |
| CCCc1nnc(NC(=O)CS(=O)(=O)c2ccccc2)s1 | inconclusive: 23.1 µM [activator, single point] |
| Cc1ccc(S(=O)(=O)c2cn(CC(=O)Nc3ccc4c(c3)OCO4)c3ccc(F)cc3c2=O)cc1 | inactive |
| CN1/C(=C/C=C(/C#N)C(N)=O)C(C)(C)c2ccccc21 | inconclusive: 0.731 µM [falling, partial curve, poor fit] |
| CCSC1=NC2(CCN(C(=O)NC3CCCCC3)CC2)N=C1c1ccc(C)c(C)c1 | inconclusive: 29.1 µM [falling, single point] |
| O=c1c2ccccc2oc2cc(OCc3cccc(F)c3)cc(O)c12 | inconclusive: 0.651 µM [activator, full curve, poor fit] |
| O=C(COc1ccc(/C=N/NC(=O)CSCc2ccc([N+](=O)[O-])cc2)cc1)NCc1ccco1 | inconclusive: 29.1 µM [falling, single point] |
| CCC1=Nc2cc(C(=O)NCCN3CCOCC3)ccc2Sc2ccc(C)cc21 | inactive |
| Cc1ccc2c(c1)N(C(=O)CCC(=O)NCCCN1CC(C)CC(C)C1)CCO2 (stereo unspecified) | inconclusive: 4.11 µM [falling, single point] |
| N#CC1=C2N=C(N)c3ccccc3N2C2=C(C(=O)CCC2)C1c1ccc(F)cc1 (stereo unspecified) | inconclusive: 32.6 µM [falling, single point] |
| Cc1cc(C)n(-c2nc(NCCCN(C)C)c3c4c(sc3n2)CCCC4)n1 | inactive |
| CCCC(=O)Nc1ccc2c(c1)Cc1ccccc1-2 | inconclusive: 18.4 µM [activator, partial curve] |
| S=C(Nc1ccccc1Cl)N(Cc1ccccc1)Cc1ccccn1 | active: 20.6 µM |
| COc1ccc(C2(c3ccc(OC)cc3)NC(=O)N(CC(=O)NC(C)C)C2=O)cc1 | inactive |
| CCC(C)(C)c1ccc(Oc2cccc(C(=O)O)c2)cc1 | inconclusive: 5.8 µM [activator, partial curve, poor fit] |
| CC(=O)Oc1ccc(C(=O)Nc2cccc(C(=O)c3cccc(NC(=O)c4ccc(OC(C)=O)cc4)c3)c2)cc1 | inactive |
| COc1ccc(C(=O)NN=C2CCCC2)cc1 | inconclusive: 6.51 µM [activator, partial curve, poor fit] |
| C/C(N)=C(/C#N)C(=O)CSc1nnc(-c2ccc(OC(F)F)cc2)o1 | inconclusive: 1.46 µM [activator, full curve] and inconclusive: 2.06 µM [activator, full curve] |
| O=C(c1n[nH]c2ccccc12)N1CCN(S(=O)(=O)c2ccc(Cl)cc2)CC1 | inconclusive: 23.1 µM [falling, single point] |

Three structures from above, sorted by heavy-atom count, ascending:

| Structure (SMILES) | Potency |
| --- | --- |
| CN1/C(=C/C=C(/C#N)C(N)=O)C(C)(C)c2ccccc21 | inconclusive: 0.731 µM [falling, partial curve, poor fit] |
| S=C(Nc1ccccc1Cl)N(Cc1ccccc1)Cc1ccccn1 | active: 20.6 µM |
| CCOc1ccc2c(c1)C(N(CCN1CCOCC1)C(=S)Nc1ccccc1OC)CC(C)(C)O2 (stereo unspecified) | inconclusive: 29.1 µM [falling, single point] |

Nothing new here: entries from further up.

| Structure (SMILES) | Potency |
| --- | --- |
| COc1ccc(C(=O)NN=C2CCCC2)cc1 | inconclusive: 6.51 µM [activator, partial curve, poor fit] |
| C/C(N)=C(/C#N)C(=O)CSc1nnc(-c2ccc(OC(F)F)cc2)o1 | inconclusive: 1.46 µM [activator, full curve] and inconclusive: 2.06 µM [activator, full curve] |

More records follow.

| Structure (SMILES) | Potency |
| --- | --- |
| O=C(CSc1ccc(-c2ccc3c(c2)OCO3)nn1)Nc1nccs1 | inconclusive: 29.1 µM [falling, single point] |
| COc1ccc(NC(=S)N(CCN2CCOCC2)C2CCN(C(C)=O)CC2)cc1Cl | inconclusive: 0.164 µM [activator, partial curve, poor fit] |
| COc1ccc(CN2CCN(Cc3cccc(Oc4ccccc4)c3)CC2)c(OC)c1OC | inactive |
| CC(=O)c1ccccc1C(=O)N1CCCC(C(=O)c2ccc(C(F)(F)F)cc2)C1 (stereo unspecified) | inconclusive: 3.66 µM [activator, full curve] |
| c1ccc(Nc2nc(-c3ccccc3)ns2)cc1 | inconclusive: 9.2 µM [activator, partial curve] |
| O=C(Nc1ccccc1C(=O)N1CCCCCC1)c1ccc(Cl)cc1 | inconclusive: 1.3 µM [activator, full curve] |
| CC1CCN(S(=O)(=O)c2ccc3c4c2CC(=O)N4CC(C)S3)CC1 (stereo unspecified) | active: 20.6 µM |
| CCN1/C(=C/c2ccc3ccccc3[n+]2CCCS(=O)(=O)[O-])C=Cc2cc(C)ccc21 | inactive |
| CSc1ccc(C(=S)N2CCCC2)cc1 | inactive |
| CN1CCN(C(=O)/C=C/c2ccc(Cl)cc2)CC1 | inconclusive: 23.1 µM [activator, single point] |
| COc1ccc(S(=O)(=O)N2CCCCC2)cc1NC(=O)CSc1ncnc2ccccc12 | inactive |
| CCO/N=C(\C)c1c(O)c2ccccc2n(C)c1=O | inconclusive: 5.8 µM [activator, full curve, poor fit] |
| Cc1ccc(-c2noc(CSc3nnc(Cc4ccccc4)n3-c3ccc(Cl)cc3)n2)cc1 | inconclusive: 20.6 µM [falling, single point] |
| CCc1c(C)nc2cc(-c3ccccc3)[nH]n2c1=O | inconclusive: 16.4 µM [activator, partial curve, poor fit] |
| Cc1ccc(OCC(=O)Nc2ccc3c(c2)OCCO3)cc1C | inconclusive: 10.3 µM [falling, single point] |
| COc1ccc2[nH]c(=O)c(CNc3ccccc3)cc2c1 | inconclusive: 20.6 µM [activator, partial curve, poor fit] |
| CSc1nccc(N2CCN(c3ccc(F)cc3)CC2)n1 | inconclusive: 23.1 µM [falling, partial curve, poor fit] |
| COc1ccccc1-c1cc(C(=O)NC2CCCC2)no1 | inconclusive: 6.51 µM [activator, partial curve] |
| COc1ccc(CNC(=O)[C@H](C)N2C(=O)N3CCc4c([nH]c5ccccc45)[C@@]3(C)C2=O)cc1OC | active: 16.4 µM |
| Cc1cccc(Nc2nc3ccccc3n3c(N)nnc23)c1 | inactive |
| Cc1ccc(NC(=O)CN(C)C(=O)c2cccnc2Nc2cccc(C(F)(F)F)c2)cc1 | inconclusive: 18.4 µM [falling, single point] |
| Cc1cc2n(n1)CCCN2C(=O)Nc1cccc(C)c1C | inconclusive: 14.6 µM [activator, partial curve, poor fit] |
